Data published in the supplement of paper PMC10849652.
The list shows a part of the results.

Protein sequences, listed by entry. Tags and fused reporters are not part of them. Lines headed by an entry give the natural chain unless they say otherwise; changes in a name come on top.
UniProt P10619: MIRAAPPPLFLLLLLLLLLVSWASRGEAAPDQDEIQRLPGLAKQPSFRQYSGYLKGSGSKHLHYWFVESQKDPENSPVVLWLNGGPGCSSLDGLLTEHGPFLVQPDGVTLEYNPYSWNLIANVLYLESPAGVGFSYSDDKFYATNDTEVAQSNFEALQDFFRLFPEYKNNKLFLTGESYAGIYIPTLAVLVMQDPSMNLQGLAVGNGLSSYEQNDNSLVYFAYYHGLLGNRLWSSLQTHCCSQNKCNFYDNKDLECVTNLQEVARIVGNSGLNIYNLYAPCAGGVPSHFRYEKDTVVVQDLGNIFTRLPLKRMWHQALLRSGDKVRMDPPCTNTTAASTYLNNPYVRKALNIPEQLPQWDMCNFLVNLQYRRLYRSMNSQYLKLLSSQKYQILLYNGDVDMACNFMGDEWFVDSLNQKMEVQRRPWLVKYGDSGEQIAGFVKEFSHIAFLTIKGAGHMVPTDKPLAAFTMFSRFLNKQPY
UniProt Q13618, whole entry, looked up: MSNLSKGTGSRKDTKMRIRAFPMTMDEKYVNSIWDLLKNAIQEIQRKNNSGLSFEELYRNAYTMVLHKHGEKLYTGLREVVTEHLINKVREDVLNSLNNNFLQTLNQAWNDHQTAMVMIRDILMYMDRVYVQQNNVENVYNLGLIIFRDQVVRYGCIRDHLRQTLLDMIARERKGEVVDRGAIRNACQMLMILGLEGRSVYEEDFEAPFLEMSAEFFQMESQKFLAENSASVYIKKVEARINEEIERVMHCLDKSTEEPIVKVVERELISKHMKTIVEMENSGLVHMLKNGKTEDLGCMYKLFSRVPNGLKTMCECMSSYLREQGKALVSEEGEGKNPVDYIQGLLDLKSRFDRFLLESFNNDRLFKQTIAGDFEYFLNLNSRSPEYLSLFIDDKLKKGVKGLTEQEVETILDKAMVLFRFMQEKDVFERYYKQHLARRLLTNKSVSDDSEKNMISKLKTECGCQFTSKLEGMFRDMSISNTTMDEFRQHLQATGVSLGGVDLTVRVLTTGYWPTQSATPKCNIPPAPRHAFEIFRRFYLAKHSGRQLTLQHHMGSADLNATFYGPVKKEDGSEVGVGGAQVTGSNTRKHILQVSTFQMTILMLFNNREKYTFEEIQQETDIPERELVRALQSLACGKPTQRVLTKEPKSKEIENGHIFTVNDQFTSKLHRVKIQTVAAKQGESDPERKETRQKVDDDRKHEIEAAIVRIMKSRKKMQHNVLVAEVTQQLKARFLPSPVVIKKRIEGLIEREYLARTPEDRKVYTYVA
UniProt P32321: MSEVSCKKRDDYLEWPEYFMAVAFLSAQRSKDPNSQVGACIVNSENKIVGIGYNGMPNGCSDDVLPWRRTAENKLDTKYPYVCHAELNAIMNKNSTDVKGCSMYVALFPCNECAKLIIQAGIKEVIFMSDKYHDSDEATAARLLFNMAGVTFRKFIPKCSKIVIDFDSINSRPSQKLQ
UniProt P61962: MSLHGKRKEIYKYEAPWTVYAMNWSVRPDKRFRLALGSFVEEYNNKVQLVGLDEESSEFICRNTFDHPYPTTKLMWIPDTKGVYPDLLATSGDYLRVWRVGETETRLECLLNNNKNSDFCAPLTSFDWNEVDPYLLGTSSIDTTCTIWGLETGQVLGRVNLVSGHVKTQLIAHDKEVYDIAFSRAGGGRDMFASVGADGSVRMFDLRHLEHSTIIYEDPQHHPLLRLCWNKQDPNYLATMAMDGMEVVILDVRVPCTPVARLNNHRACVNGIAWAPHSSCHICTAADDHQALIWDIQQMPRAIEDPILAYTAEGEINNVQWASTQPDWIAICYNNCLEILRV
UniProt P11182, whole entry, looked up: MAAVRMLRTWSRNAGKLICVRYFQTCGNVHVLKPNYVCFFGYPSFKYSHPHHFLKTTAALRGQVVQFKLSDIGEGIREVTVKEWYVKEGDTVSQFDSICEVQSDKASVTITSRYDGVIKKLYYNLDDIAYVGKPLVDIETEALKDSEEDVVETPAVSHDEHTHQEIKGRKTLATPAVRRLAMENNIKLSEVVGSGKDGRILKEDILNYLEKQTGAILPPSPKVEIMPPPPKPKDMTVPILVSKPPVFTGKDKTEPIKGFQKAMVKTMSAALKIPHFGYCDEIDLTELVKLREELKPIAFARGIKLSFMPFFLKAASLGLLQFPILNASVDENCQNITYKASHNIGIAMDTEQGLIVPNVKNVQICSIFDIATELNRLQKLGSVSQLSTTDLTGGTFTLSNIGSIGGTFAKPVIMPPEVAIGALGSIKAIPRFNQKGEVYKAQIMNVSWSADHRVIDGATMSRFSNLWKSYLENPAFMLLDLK
UniProt Q13616, whole entry, looked up: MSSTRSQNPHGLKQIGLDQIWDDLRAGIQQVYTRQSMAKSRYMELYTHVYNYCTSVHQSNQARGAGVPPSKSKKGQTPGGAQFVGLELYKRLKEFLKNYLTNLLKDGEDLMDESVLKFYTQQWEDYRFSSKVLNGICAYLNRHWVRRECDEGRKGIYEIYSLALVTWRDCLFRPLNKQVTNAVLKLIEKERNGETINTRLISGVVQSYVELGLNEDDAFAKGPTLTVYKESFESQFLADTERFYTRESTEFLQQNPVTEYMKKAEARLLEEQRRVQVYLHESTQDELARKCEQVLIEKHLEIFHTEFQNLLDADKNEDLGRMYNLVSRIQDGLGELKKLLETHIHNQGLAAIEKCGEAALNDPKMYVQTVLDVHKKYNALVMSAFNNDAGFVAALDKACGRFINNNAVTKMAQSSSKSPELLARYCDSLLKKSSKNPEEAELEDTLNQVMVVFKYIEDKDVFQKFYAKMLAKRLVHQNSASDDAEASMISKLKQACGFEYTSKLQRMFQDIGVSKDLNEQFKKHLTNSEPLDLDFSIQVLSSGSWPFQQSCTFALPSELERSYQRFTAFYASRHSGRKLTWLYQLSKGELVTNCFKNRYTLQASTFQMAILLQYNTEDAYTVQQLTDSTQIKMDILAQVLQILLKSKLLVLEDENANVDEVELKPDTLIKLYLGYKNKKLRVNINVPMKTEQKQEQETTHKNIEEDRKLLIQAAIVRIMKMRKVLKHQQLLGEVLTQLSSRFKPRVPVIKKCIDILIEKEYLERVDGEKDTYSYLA
UniProt Q9UJU6: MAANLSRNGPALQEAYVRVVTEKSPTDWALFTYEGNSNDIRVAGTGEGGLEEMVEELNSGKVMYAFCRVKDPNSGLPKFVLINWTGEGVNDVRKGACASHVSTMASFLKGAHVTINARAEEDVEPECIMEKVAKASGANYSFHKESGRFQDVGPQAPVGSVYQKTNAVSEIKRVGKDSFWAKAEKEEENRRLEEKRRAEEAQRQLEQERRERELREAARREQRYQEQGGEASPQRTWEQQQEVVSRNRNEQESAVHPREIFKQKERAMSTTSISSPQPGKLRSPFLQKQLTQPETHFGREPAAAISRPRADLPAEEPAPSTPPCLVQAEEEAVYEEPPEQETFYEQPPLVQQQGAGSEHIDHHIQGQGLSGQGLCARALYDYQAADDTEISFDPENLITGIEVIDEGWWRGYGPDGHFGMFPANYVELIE
UniProt P04080: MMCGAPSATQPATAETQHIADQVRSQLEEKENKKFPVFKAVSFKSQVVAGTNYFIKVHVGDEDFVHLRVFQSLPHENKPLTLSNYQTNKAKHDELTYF
UniProt Q13561, whole entry, looked up: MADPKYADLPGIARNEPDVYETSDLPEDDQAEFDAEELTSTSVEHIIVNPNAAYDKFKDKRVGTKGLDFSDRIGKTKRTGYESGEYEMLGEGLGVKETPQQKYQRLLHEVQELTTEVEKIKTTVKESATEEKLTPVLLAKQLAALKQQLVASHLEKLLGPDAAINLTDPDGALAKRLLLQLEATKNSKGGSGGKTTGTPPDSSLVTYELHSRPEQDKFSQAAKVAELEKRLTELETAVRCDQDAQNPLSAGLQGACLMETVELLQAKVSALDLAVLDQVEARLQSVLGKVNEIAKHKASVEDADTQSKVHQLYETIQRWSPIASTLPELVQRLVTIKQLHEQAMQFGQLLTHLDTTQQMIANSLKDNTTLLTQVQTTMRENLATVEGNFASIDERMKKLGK
UniProt O43310: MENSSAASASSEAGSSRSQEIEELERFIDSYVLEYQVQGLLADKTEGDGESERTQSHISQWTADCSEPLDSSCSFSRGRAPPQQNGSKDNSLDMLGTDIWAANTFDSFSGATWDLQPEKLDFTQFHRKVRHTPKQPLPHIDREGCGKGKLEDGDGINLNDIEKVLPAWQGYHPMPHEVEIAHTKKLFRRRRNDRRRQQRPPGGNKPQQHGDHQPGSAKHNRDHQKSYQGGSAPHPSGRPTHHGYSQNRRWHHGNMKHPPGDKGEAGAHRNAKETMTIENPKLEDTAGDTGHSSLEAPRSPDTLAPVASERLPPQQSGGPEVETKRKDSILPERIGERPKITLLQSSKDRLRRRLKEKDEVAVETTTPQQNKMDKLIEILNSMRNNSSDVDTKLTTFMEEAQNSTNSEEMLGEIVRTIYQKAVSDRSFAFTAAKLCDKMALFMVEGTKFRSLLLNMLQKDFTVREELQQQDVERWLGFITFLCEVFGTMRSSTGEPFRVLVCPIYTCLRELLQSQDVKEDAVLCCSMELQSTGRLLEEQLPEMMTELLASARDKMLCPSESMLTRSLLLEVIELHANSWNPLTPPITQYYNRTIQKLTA
UniProt P61803: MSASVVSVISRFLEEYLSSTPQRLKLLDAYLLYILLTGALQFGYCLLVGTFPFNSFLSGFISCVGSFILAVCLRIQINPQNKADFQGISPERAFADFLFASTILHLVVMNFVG
UniProt Q5JQC4: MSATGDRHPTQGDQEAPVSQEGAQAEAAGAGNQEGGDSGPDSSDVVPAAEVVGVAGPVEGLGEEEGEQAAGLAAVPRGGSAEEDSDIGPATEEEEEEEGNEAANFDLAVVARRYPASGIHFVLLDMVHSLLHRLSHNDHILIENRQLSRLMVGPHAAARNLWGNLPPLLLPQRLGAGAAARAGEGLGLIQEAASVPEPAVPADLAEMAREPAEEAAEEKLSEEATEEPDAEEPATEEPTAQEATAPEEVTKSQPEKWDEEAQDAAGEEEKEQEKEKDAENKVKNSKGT
UniProt Q96C57: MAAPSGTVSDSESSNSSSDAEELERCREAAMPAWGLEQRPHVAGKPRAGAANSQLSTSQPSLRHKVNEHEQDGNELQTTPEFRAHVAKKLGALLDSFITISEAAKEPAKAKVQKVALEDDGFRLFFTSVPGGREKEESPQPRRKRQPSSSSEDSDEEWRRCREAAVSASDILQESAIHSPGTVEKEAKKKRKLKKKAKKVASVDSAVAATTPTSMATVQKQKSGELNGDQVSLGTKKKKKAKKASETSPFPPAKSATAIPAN
UniProt Q9UJW0, whole entry, looked up: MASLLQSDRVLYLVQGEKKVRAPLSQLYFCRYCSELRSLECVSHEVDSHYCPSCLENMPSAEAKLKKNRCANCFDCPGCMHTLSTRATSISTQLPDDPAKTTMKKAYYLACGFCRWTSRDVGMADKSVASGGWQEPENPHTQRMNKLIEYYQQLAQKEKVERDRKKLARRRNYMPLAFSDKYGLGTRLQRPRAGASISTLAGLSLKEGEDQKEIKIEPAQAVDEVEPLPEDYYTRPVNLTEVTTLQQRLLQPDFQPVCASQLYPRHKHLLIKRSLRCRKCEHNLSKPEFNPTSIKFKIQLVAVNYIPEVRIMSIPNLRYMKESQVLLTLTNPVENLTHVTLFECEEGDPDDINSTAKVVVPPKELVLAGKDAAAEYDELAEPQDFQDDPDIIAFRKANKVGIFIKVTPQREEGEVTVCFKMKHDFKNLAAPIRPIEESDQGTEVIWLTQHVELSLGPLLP
UniProt Q9UER7, whole entry, looked up: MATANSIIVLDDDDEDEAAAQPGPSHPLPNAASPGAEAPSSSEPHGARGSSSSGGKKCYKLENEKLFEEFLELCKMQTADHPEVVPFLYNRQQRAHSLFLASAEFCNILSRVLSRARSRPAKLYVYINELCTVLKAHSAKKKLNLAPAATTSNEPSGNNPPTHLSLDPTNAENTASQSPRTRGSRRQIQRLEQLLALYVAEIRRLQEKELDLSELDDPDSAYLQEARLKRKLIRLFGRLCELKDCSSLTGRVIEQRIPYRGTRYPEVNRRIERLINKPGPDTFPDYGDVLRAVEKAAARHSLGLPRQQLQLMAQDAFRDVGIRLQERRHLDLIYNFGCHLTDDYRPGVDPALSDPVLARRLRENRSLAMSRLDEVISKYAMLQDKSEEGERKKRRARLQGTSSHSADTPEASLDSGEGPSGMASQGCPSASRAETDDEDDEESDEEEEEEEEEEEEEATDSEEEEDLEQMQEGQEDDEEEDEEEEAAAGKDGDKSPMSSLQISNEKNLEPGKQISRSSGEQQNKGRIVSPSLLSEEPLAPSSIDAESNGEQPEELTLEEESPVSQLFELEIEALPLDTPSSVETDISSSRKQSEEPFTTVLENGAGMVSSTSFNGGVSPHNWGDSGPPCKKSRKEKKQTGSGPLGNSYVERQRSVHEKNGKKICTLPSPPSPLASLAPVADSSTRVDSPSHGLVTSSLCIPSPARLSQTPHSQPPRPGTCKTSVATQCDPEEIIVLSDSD

What was measured:
Assay in all cases: log2 fold change, soluble protein after heating vs DMSO (PISA); higher = thermal stabilisation; K562 cells, 10 uM, 30 min; active = over 0.2 and 3.5 SD of the protein, either way, in both replicates (recomputed)
erlotinib = compound: C#Cc1cccc(Nc2ncnc3cc(OCCOC)c(OCCOC)cc23)c1 [erlotinib]
Summary of the method: (§1)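 K562 cells at 2×10^6 cells/mL were treated for 30 min with 10 μM compound, and aliquots were heated for 3 min over 48°C-58°C before pooling. Extraction used PBS with 0.5% NP-40 at 4°C, and soluble protein was the supernatant after 21,000xg for 90 min, measured by TMTpro 16plex LC-MS/MS with channel sums equalised. Thermal stability values, relative to control samples and from duplicates, are log2 fold changes.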

[1] = compound: C/C(=N\NC(=O)C1=CC(=CC=C1)S(=O)(=O)N2CCOCC2)/C3=C(C=CC(=C3)Cl)O
Summary of the method: as §1

[2] = compound: C1=CC(=C(C=C1Cl)C2=NC3=NC=CN=C3C(=N2)NC4=CC=NC=C4)F
Summary of the method: as §1

[3] = compound: C1=CC(=CC=C1C2=NC3=C(N2)C=C(C=C3)C(=O)N)OC4=CC=C(C=C4)Cl
Summary of the method: as §1

[4] = compound: C1=CC2=C(C=CC(=C2)/C=C\3/C(=O)NC(=NCC4=CC=CS4)S3)N=C1
Summary of the method: as §1

[5] = compound: C1=CC2=NC=CN=C2C=C1/C=C/3\C(=O)NC(=O)S3
Summary of the method: as §1

[6] = compound: C1=CC=C(C=C1)C2=NC(=C(N2)C3=CC=NC=C3)C4=CC(=C(C=C4)Cl)O
Summary of the method: as §1

[7] = compound: C1=CC=C2C(=C1)C3=NNC4=CC=CC(=C43)C2=O
Summary of the method: as §1

[8] = compound: C1CCN(C1)C(=O)NC2=CC=CC(=C2)NC3=NC=C(C(=N3)NCCC4=CN=CN4)Br
Summary of the method: as §1

[9] = compound: C1CN(CCC1(CC2=CC=C(C=C2)Cl)N)C3=NC=NC4=C3C=CN4
Summary of the method: as §1

| Target | log2 fold change (erlotinib) | log2 fold change [1] | log2 fold change [2] | log2 fold change [3] | log2 fold change [4] | log2 fold change [5] | log2 fold change [6] | log2 fold change [7] | log2 fold change [8] | log2 fold change [9] |
| --- | --- | --- | --- | --- | --- | --- | --- | --- | --- | --- |
| DBR1 (UniProt Q9UK59) | inactive: 0.031 | inactive: 0.042 | inactive: -0.052 | inactive: 0.025 | inactive: -0.033 | inactive: 0.002 | inactive: 0.069 | inactive: 0.006 | inactive: -0.026 | inactive: 0.044 |
| CTSA (UniProt P10619) | inactive: -0.058 | inactive: -0.065 | inactive: 0.001 | inactive: -0.004 | inactive: -0.053 | inactive: 0.018 | inactive: 0.04 | inactive: 0.003 | inactive: 0.021 | inactive: 0.051 |
| CYC1 (UniProt P08574) | inactive: -0.036 | inactive: 0.048 | inactive: 0.023 | inactive: 0.042 | inactive: 0.026 | inactive: 0.023 | inactive: -0.007 | inactive: -0.003 | inactive: 0.013 | inactive: -0.004 |
| CXorf56 (UniProt Q9H5V9) | inactive: 0.031 | inactive: -0.042 | inactive: -0.029 | inactive: -0.003 | inactive: -0.004 | inactive: 0.004 | inactive: 0.023 | inactive: 0.044 | inactive: -0.039 | inactive: -0.002 |
| CYP51A1 (UniProt Q16850) | inactive: -0.09 | inactive: 0.019 | inactive: -0.248 | inactive: -0.002 | inactive: 0.007 | inactive: 0.018 | inactive: -0.096 | inactive: 0.089 | inactive: 0.014 | inactive: 0.137 |
| CUL5 (UniProt Q93034) | inactive: 0.013 | inactive: 0.013 | inactive: 0.054 | inactive: 0.002 | inactive: 0.03 | inactive: 0.022 | inactive: 0.023 | inactive: -0.009 | inactive: 0.002 | inactive: 0.029 |
| CUL3 (UniProt Q13618) | inactive: 0.013 | inactive: 0.021 | inactive: 0.08 | inactive: 0.006 | inactive: 0.008 | inactive: 0.011 | inactive: 0.031 | inactive: 0.013 | inactive: -0.018 | inactive: 0.035 |
| CTH (UniProt P32929) | inactive: 0.009 | inactive: 0.029 | inactive: 0.062 | inactive: 0.005 | inactive: -0.06 | inactive: 0.001 | inactive: 0.08 | inactive: -0.02 | inactive: -0.015 | inactive: 0.042 |
| CUL4B (UniProt K4DI93) | inactive: 0.018 | inactive: 0.038 | inactive: 0.044 | inactive: -0.009 | inactive: 0.009 | inactive: -0.002 | inactive: 0.055 | inactive: -0.006 | inactive: -0.017 | inactive: 0.033 |
| CYB5B, A0A499FJ32 | inactive: -0.039 | inactive: -0.079 | inactive: 0.002 | inactive: 0.024 | inactive: 0.099 | inactive: -0.009 | inactive: 0.003 | inactive: -0.065 | inactive: -0.042 | inactive: 0.049 |
| CTBP2 isoform 2 (UniProt P56545) | inactive: 0.019 | inactive: -0.015 | inactive: 0.047 | inactive: -0.016 | inactive: 0.098 | inactive: 0.003 | inactive: -0.048 | inactive: -0.006 | inactive: -0.009 | inactive: -0.018 |
| DCTD isoform 2 (UniProt P32321) | inactive: -0.065 | inactive: 0.001 | inactive: 0.016 | inactive: 0.038 | inactive: 0.02 | inactive: 0.021 | inactive: 0.013 | inactive: -0.004 | inactive: -0.05 | inactive: 0.041 |
| DCAF7 (UniProt P61962) | inactive: 0.013 | inactive: -0.046 | inactive: -0.058 | inactive: 0.035 | inactive: -0.028 | inactive: -0.063 | inactive: -0.071 | inactive: -0.029 | inactive: -0.005 | inactive: -0.018 |
| DBT (UniProt P11182) | inactive: -0.041 | inactive: -0.019 | inactive: -0.021 | inactive: 0.049 | inactive: -0.03 | inactive: 0.038 | inactive: 0.099 | inactive: -0.01 | inactive: -0.006 | inactive: -0.065 |
| CUL1 (UniProt Q13616) | inactive: 0.006 | inactive: 0.031 | inactive: 0.056 | inactive: -0.014 | inactive: -0.021 | inactive: 0.024 | inactive: 0.064 | inactive: -0.023 | inactive: -0.011 | inactive: 0.038 |
| DAGLB (UniProt Q8NCG7) | inactive: -0.045 | inactive: 0.051 | inactive: -0.127 | inactive: 0.012 | inactive: 0.059 | inactive: 0.01 | inactive: 0.042 | inactive: -0.034 | inactive: 0.002 | inactive: 0.031 |
| DBNL isoform 3 (UniProt Q9UJU6) | inactive: 0.06 | inactive: 0.024 | inactive: 0.034 | inactive: -0.063 | inactive: -0.012 | inactive: 0.146 | inactive: -0.008 | inactive: -0.004 | inactive: -0.084 | inactive: -0.066 |
| CSTB (UniProt P04080) | inactive: -0.047 | inactive: 0.05 | inactive: 0.15 | inactive: 0.003 | inactive: 0.115 | inactive: -0.028 | inactive: 0.047 | inactive: -0.007 | inactive: 0.002 | inactive: 0.013 |
| DCTN2 isoform 2 (UniProt Q13561) | inactive: -0.005 | inactive: 0.064 | inactive: 0.08 | inactive: 0.011 | inactive: 0.007 | inactive: 0.024 | inactive: 0.032 | inactive: 0.008 | inactive: 0.002 | inactive: -0.048 |
| CTIF isoform 2 (UniProt O43310) | inactive: -0.039 | inactive: -0.018 | inactive: -0.027 | inactive: 0.015 | inactive: 0.073 | inactive: 0.116 | inactive: -0.006 | inactive: -0.011 | inactive: 0.099 | inactive: 0.025 |
| DAD1 (UniProt P61803) | inactive: 0.02 | inactive: 0.05 | inactive: -0.357 | inactive: 0.162 | inactive: 0.016 | inactive: 0.117 |  | inactive: -0.059 | inactive: 0.038 | inactive: -0.008 |
| CTSB (UniProt P07858) | inactive: 0.021 | inactive: -0.037 | inactive: 0.026 | inactive: 0.003 | inactive: 0.038 | inactive: 0.016 | inactive: 0.009 | inactive: -0.017 | inactive: 0.007 | inactive: 0.04 |
| CT55 (UniProt Q8WUE5) | inactive: 0.081 | inactive: -0.017 | inactive: -0.073 | inactive: -0.022 | inactive: 0.09 | inactive: 0.021 |  | inactive: 0.026 | inactive: -0.017 | inactive: 0.013 |
| CT47A1 (UniProt Q5JQC4) | inactive: 0.071 | inactive: 0.087 | inactive: 0.013 | inactive: -0.05 | inactive: -0.034 | inactive: 0.016 | inactive: -0.142 | inactive: -0.08 | inactive: 0.064 | inactive: -0.017 |
| CUSTOS (UniProt Q96C57) | inactive: -0.005 | inactive: -0.025 | inactive: -0.085 | inactive: 0.036 | inactive: -0.025 | inactive: 0.026 | inactive: -0.057 | inactive: -0.01 | inactive: -0.004 | inactive: 0.011 |
| DCTN4 (UniProt Q9UJW0) | inactive: -0.028 | inactive: 0.024 | inactive: -0.035 | inactive: 0.013 | inactive: -0.043 | inactive: -0.011 | inactive: -0.044 | inactive: -0.022 | inactive: -0.043 | inactive: -0.008 |
| CYP24A1 (UniProt Q07973) | inactive: -0.042 | active: -0.796 |  | inactive: -0.072 | inactive: 0.015 | inactive: -0.13 | inactive: 0.091 | inactive: -0.057 | inactive: 0.179 | inactive: 0.046 |
| DAXX (UniProt Q9UER7) | inactive: 0.212 | active: -0.662 |  | inactive: 0.037 | inactive: 0.072 | inactive: 0.012 | inactive: 0.055 | inactive: 0.009 | inactive: -0.148 | inactive: 0.224 |

Some of the entries so far, with tabs:
Target	log2 fold change (erlotinib)	log2 fold change [1]	log2 fold change [2]	log2 fold change [3]	log2 fold change [4]	log2 fold change [5]	log2 fold change [6]	log2 fold change [7]	log2 fold change [8]	log2 fold change [9]
DBT (UniProt P11182)	inactive: -0.041	inactive: -0.019	inactive: -0.021	inactive: 0.049	inactive: -0.03	inactive: 0.038	inactive: 0.099	inactive: -0.01	inactive: -0.006	inactive: -0.065
CUL1 (UniProt Q13616)	inactive: 0.006	inactive: 0.031	inactive: 0.056	inactive: -0.014	inactive: -0.021	inactive: 0.024	inactive: 0.064	inactive: -0.023	inactive: -0.011	inactive: 0.038
